Measurements reported in publication PMC8278772.
No constants are given. Whether binding was seen depends on the method and setting. A result given as binding can be weak or reduced; the word gives no strength.

Molecular target: Canavalia rosea plasma membrane intrinsic protein CrPIP2;3 (Canavalia rosea)
Test: two-hybrid; pGBKT7 (BD) bait and pGADT7 (AD) prey plasmids co-transformed in pairs into yeast AH109; plated on SD/-Leu-Trp and SD/-Leu-Trp-His; spots supplemented with 40 ug/mL X-alpha-Gal; repeated three times

binding: binds
Substance: Canavalia rosea plasma membrane intrinsic protein CrPIP1;5 (from UniProt A0A8F4X4X8)
